Laboratory results: PubChem BioAssay AID602196 (INSERM, 2012)

Test: 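Genes whose knock-down alters cisplatin killing of lung cancer cells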
Cell system: human A549 lung cancer cells
Knock-down reagent: siRNA pair against human genes
Timing: 48 h transfection before cisplatin; time from cisplatin to read-out not stated
Treatment: cisplatin at a dose killing half of control-siRNA cells; exact dose and duration not given
Measured: 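Shift in cisplatin death relative to control siRNA, from -50 (all cells die) to +50 (no cells die); siRNAs harmful on their own scored 0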
Scale: two-siRNA summed score (-2 to +2): higher = both siRNAs protect from cisplatin killing; -2 means both sensitise
Call rule: 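siRNAs harmful alone (LDH or WST-1) get 0; others get +1 for less and -1 for more cisplatin killing; genes are active when the two siRNAs give the same sign, summing to ±2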
Meaning of the calls: active = both siRNAs shift cisplatin killing the same way; inactive = no consistent shift, or siRNA harmful alone
The whole screen tested about 23,000 reagents; this is a random part of them. In the full data, 455 (2%) got an active call. 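Active includes both protection and sensitisation; some change values fall well beyond the stated -50 to +50 range.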 Unmarked entries are inactive. Not all columns of the deposit are shown. Not stated in the record: the amount of reagent.

For GOLM1 (golgi membrane protein 1) [SID131509458], what does the deposit list?
two-siRNA summed score (-2 to +2): 0

With CYP2F1 (cytochrome P450 family 2 subfamily F member 1) [SID131518043], how do the results read?
two-siRNA summed score (-2 to +2): 0

For SHB (SH2 domain containing adaptor protein B) [SID131520832], what does the deposit list?
two-siRNA summed score (-2 to +2): 1

With BTN1A1 (butyrophilin subfamily 1 member A1) [SID131501643], what was measured?
two-siRNA summed score (-2 to +2): -1

With TNFRSF1A (TNF receptor superfamily member 1A) [SID131522533], what does the deposit list?
two-siRNA summed score (-2 to +2): 1

With DOLK (dolichol kinase) [SID131512948], what was measured?
two-siRNA summed score (-2 to +2): 0

For FGD2 (FYVE, RhoGEF and PH domain containing 2) [SID131512947], how do the results read?
two-siRNA summed score (-2 to +2): 0

For COG8 (component of oligomeric golgi complex 8) [SID131505222], what was measured?
two-siRNA summed score (-2 to +2): 0

For LOC387761 [SID131513949], what does the deposit list?
two-siRNA summed score (-2 to +2): 0

For SH2D4B (SH2 domain containing 4B) [SID131508976], what does the deposit list?
two-siRNA summed score (-2 to +2): 0

With CDK5RAP1 (CDK5RAP1 mitochondrial tRNA methylthiotransferase) [SID131510870], what was measured?
two-siRNA summed score (-2 to +2): 0

For GPAM (glycerol-3-phosphate acyltransferase, mitochondrial) [SID131509784], what was measured?
two-siRNA summed score (-2 to +2): 0

For UBAC1 (UBA domain containing 1) [SID131500309], how do the results read?
two-siRNA summed score (-2 to +2): -2 (active)

With KCNA6 (potassium voltage-gated channel subfamily A member 6) [SID131504189], what does the deposit list?
two-siRNA summed score (-2 to +2): 0

What did the screen give for CALHM5 (calcium homeostasis modulator family member 5) [SID131507313]?
two-siRNA summed score (-2 to +2): 0

With TEX14 (testis expressed 14, intercellular bridge forming factor) [SID131522373], what was measured?
two-siRNA summed score (-2 to +2): 1

With OR1Q1 (olfactory receptor family 1 subfamily Q member 1) [SID131516530], what was measured?
two-siRNA summed score (-2 to +2): 0

How did the screen score DLX5 (distal-less homeobox 5) [SID131507435]?
two-siRNA summed score (-2 to +2): 0

How did the screen score NUF2 (NUF2 component of NDC80 kinetochore complex) [SID131516127]?
two-siRNA summed score (-2 to +2): 0

How did the screen score AACSP1 (acetoacetyl-CoA synthetase pseudogene 1) [SID131513235]?
two-siRNA summed score (-2 to +2): 0

What is on record for GRHPR (glyoxylate and hydroxypyruvate reductase) [SID131502801]?
two-siRNA summed score (-2 to +2): 0

For FCRL2 (Fc receptor like 2) [SID131506697], what does the deposit list?
two-siRNA summed score (-2 to +2): 0

3 entries from above, sorted by “two-siRNA summed score (-2 to +2)”, lowest first.
COG8 (component of oligomeric golgi complex 8) [SID131505222] → two-siRNA summed score (-2 to +2) = 0
LOC387761 [SID131513949] → two-siRNA summed score (-2 to +2) = 0
SH2D4B (SH2 domain containing 4B) [SID131508976] → two-siRNA summed score (-2 to +2) = 0

The listing continues:
With SPG11 (SPG11 vesicle trafficking associated, spatacsin) [SID131503054], what does the deposit list?
two-siRNA summed score (-2 to +2): 0

What is on record for LRRC20 (leucine rich repeat containing 20) [SID131504269]?
two-siRNA summed score (-2 to +2): 0

With RUFY4 (RUN and FYVE domain containing 4) [SID131521108], how do the results read?
two-siRNA summed score (-2 to +2): 1

What did the screen give for LOC399920 [SID131508720]?
two-siRNA summed score (-2 to +2): 0

What is on record for CLDN2 (claudin 2) [SID131501708]?
two-siRNA summed score (-2 to +2): -1

For GABPB2 (GA binding protein transcription factor subunit beta 2) [SID131506102], what was measured?
two-siRNA summed score (-2 to +2): 0

How did the screen score LOC387652 [SID131511761]?
two-siRNA summed score (-2 to +2): 0

For LOC440317 [SID131504783], how do the results read?
two-siRNA summed score (-2 to +2): 0

With UBR4 (ubiquitin protein ligase E3 component n-recognin 4) [SID131513960], how do the results read?
two-siRNA summed score (-2 to +2): 0

With SEC24C (SEC24 homolog C, COPII component) [SID131502421], what does the deposit list?
two-siRNA summed score (-2 to +2): -1

What is on record for SSX2IP (SSX family member 2 interacting protein) [SID131506269]?
two-siRNA summed score (-2 to +2): 0

What did the screen give for TEAD3 (TEA domain transcription factor 3) [SID131510637]?
two-siRNA summed score (-2 to +2): 0

For TRAPPC10 (trafficking protein particle complex subunit 10) [SID131502329], what was measured?
two-siRNA summed score (-2 to +2): -1

With TNRC6B (trinucleotide repeat containing adaptor 6B) [SID131511107], what was measured?
two-siRNA summed score (-2 to +2): 0

For D2HGDH (D-2-hydroxyglutarate dehydrogenase) [SID131514541], what does the deposit list?
two-siRNA summed score (-2 to +2): 0

What is on record for RASA4 (RAS p21 protein activator 4) [SID131502016]?
two-siRNA summed score (-2 to +2): -1

With PSMD4 (proteasome 26S subunit ubiquitin receptor, non-ATPase 4) [SID131518719], how do the results read?
two-siRNA summed score (-2 to +2): 0

What is on record for NAT14 (N-acetyltransferase 14 (putative)) [SID131508361]?
two-siRNA summed score (-2 to +2): 0
